Reference: publication PMC9782470 (Pharmaceuticals, 2022)

Experiment: peptide synthesis
Conditions: conjugation step

Q: For c(RGDfK)-Cy5, which conjugation yield is on record?
A: Its conjugation yield is 59%.
